Experimental findings from publication PMC13247162 are described below.

Chains of the proteins cited; added tags and fusions are not shown.
UniProt Q9P2K8: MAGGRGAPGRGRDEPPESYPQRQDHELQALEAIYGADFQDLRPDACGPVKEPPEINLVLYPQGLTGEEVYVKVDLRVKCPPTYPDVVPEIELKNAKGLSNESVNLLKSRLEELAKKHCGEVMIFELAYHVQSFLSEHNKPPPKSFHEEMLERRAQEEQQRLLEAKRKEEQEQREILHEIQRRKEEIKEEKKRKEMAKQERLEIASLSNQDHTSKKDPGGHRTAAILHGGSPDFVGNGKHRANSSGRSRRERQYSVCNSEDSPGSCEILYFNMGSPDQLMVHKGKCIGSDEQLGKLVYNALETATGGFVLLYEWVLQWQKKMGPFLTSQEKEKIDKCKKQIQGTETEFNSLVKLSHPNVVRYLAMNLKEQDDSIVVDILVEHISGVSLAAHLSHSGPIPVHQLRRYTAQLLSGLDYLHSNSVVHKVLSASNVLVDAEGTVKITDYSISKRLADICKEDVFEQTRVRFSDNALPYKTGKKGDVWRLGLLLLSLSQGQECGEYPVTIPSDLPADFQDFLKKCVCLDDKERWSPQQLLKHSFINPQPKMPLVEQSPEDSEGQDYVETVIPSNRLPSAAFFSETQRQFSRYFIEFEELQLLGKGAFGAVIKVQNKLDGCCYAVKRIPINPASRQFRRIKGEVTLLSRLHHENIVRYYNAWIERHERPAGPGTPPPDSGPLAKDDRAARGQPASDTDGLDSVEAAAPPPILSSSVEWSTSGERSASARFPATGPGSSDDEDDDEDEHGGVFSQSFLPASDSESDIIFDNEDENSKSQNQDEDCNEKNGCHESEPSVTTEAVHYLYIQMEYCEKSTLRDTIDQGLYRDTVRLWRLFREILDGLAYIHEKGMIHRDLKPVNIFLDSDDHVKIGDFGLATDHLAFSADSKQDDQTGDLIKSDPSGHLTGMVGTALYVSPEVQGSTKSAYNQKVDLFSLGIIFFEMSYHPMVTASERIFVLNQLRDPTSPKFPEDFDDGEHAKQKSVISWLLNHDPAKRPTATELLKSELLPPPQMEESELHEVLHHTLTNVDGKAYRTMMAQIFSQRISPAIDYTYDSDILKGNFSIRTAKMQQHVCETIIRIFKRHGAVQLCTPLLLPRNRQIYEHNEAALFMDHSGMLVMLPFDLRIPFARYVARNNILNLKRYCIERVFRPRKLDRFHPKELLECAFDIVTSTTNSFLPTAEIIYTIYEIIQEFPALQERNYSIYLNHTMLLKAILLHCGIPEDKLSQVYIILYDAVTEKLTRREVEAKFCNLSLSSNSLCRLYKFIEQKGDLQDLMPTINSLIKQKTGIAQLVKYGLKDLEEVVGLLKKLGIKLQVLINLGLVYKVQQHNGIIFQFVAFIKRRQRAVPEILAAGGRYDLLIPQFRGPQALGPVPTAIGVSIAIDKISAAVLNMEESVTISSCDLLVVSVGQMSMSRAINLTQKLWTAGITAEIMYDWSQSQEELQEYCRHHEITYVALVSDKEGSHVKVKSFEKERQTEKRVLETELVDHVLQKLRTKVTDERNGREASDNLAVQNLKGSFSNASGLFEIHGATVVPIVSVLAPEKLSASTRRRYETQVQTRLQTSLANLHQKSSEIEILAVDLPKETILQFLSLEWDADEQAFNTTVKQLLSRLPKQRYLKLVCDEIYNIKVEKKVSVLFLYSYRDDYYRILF

Results are given in words; binding and its absence hold for the method and conditions named. In cells and extracts the contact can be indirect. Some binding calls cover weakened binding; strength is not graded here.

The assay has as its target GCN2 (UniProt Q9P2K8). Briefly: co-IP; anti-GCN2 antibody covalently coupled to agarose beads (Pierce Co-Immunoprecipitation Kit), incubated overnight at 4 °C with pre-cleared lysates of HEK293T cells; immunoblot; cells with overexpression of TRIM56 and CD147 and MG132 for 12 h.

B1: TRIM56 (enzyme, UniProt Q9BRZ2 1-755)
chain: MVSHGSSPSLLEALSSDFLACKICLEQLRAPKTLPCLHTYCQDCLAQLADGGRVRCPECRETVPVPPEGVASFKTNFFVNGLLDLVKARACGDLRAGKPACALCPLVGGTSTGGPATARCLDCADDLCQACADGHRCTRQTHTHRVVDLVGYRAGWYDEEARERQAAQCPQHPGEALRFLCQPCSQLLCRECRLDPHLDHPCLPLAEAVRARRPGLEGLLAGVDNNLVELEAARRVEKEALARLREQAARVGTQVEEAAEGVLRALLAQKQEVLGQLRAHVEAAEEAARERLAELEGREQVARAAAAFARRVLSLGREAEILSLEGAIAQRLRQLQGCPWAPGPAPCLLPQLELHPGLLDKNCHLLRLSFEEQQPQKDGGKDGAGTQGGEESQSRREDEPKTERQGGVQPQAGDGAQTPKEEKAQTTREEGAQTLEEDRAQTPHEDGGPQPHRGGRPNKKKKFKGRLKSISREPSPALGPNLDGSGLLPRPIFYCSFPTRMPGDKRSPRITGLCPFGPREILVADEQNRALKRFSLNGDYKGTVPVPEGCSPCSVAALQSAVAFSASARLYLINPNGEVQWRRALSLSQASHAVAALPSGDRVAVSVAGHVEVYNMEGSLATRFIPGGKASRGLRALVFLTTSPQGHFVGSDWQQNSVVICDGLGQVVGEYKGPGLHGCQPGSVSVDKKGYIFLTLREVNKVVILDPKGSLLGDFLTAYHGLEKPRVTTMVDGRYLVVSLSNGTIHIFRVRSPDS
As to B1, the binding entry is recorded as “binds”.
